Consider 1 substance from publication PMC2500221.

By UniProt entry, the sequences of proteins in these tests, tags left out.
UniProt Q9W5E1: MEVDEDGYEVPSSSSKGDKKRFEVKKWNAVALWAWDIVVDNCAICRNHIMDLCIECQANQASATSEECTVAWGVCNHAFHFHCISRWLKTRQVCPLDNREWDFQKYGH
UniProt Q24311: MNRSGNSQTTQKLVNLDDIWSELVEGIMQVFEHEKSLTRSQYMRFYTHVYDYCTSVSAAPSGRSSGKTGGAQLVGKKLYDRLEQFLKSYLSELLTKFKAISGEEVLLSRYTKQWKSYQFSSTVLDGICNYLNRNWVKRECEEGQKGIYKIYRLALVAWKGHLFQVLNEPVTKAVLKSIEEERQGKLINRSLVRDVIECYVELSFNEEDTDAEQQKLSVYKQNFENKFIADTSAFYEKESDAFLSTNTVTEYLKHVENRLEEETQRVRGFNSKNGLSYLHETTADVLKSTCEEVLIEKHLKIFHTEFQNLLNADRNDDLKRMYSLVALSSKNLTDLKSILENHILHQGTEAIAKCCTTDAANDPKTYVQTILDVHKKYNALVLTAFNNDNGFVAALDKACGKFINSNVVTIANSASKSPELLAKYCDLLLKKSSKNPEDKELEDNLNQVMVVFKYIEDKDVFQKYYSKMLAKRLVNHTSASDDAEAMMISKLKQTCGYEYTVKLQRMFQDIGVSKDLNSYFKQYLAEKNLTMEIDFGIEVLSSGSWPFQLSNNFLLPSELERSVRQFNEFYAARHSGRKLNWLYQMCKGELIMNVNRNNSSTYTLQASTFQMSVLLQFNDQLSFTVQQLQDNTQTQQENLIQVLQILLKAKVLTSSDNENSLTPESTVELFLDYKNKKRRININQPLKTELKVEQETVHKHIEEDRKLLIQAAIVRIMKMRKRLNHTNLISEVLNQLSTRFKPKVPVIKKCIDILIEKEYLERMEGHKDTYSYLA

No constants are given. Whether binding was seen depends on the method and setting. In cells and extracts the contact can be indirect. Some binding calls cover weakened binding; strength is not graded here. For some of these results: Where a sequence is shown, tags or fusion partners need not be part of it.

Assay [1] has as its target V5-Roc1a (control Roc1a construct) (Drosophila melanogaster) (UniProt Q9W5E1). The assay can be described thus: co-IP; V5-tagged Roc or chimera constructs transfected into S2 cells, lysates 48 h later, anti-V5 immunoprecipitation; endogenous Cul1, Cul3, Cul5 detected by immunoblot.
The target of assay [2] is T1, V5-Roc1b (control Roc1b construct) (Drosophila melanogaster) (UniProt Q9NHX0).
T1 sequence: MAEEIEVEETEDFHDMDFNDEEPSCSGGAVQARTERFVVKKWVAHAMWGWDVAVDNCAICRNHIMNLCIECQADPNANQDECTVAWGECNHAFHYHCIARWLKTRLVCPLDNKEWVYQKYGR
The assay is described as above.

The target in assay [3] is T2, Flag-Roc1b (Drosophila melanogaster) (UniProt Q9NHX0).
T2 sequence: T1 sequence
The assay is described as follows: co-IP; tagged Roc protein or RING-swap chimera immunoprecipitated (anti-FLAG for the FLAG-Roc proteins) from transgenic embryo extracts (0-16 h; NP-40 lysis buffer: 50 mM Tris pH 8.3, 150 mM NaCl, 0.5% NP-40), overnight at 4°C on protein-A beads; co-precipitating endogenous Cullins detected by immunoblot; Flag-Roc1a also tested in the Roc2^KG mutant background (Fig. 8).

In assay [4] the target is Flag-Roc1a (Drosophila melanogaster) (UniProt Q9W5E1). The description is as above.

Turning to Cul1 (from UniProt Q24311 1-774), the binding entry in assay [1] was “binds”; in assay [2], “no binding”; in assay [3], “no binding”; in assay [4] it was “binds”.
